Laboratory results: US20230390282A1, “TREATMENT OF EYE CONDITIONS” (The University of Birmingham, priority 2020, published 2023)
Some entries share one result that the patent states for a list of compounds.

Key:
RGC [1] = test: Glaucoma model (intracameral TGFβ): RGC survival; format: in vivo, rat; settings: 30 days after the induction of glaucoma
Procedure: Induction of glaucoma. […] Intraocular pressure was measured using an iCare
Tonolab rebound tonometer (Icare, Helsinki, Finland).

RGC [2] = test: Optic neuritis model: RGC survival and RNFL thickness; format: in vivo, mice; settings: 21 days after induction
Procedure: Induction of optic neuritis. […] Animals were intraperitoneally injected with 150 ng Bordetella pertussis toxin on day 0 and 2. Animals were monitored daily and assessed for the development of EAE. At the end of the experiment, animals were then killed by CO2 overdose.
Measurement of RNFL thinning using optical coherence tomography (OCT). A Spectralis HRA+OCT machine was used to capture OCT images. Examinations were recorded in both right (oculus dextrus, OD) and left eyes (oculus sinister, OS) of each animal at day 0 and day 21 after immunisation. […] A RNFL single exam using the automatic real time (ART) mode (allows averaging of 100 recordings) was produced for each mouse eye, which automatically measured RNFL thickness (μm) in a 30° circle surrounding the optic nerve head.

Structure (SMILES): N=C1NC(=O)/C(=C/c2ccc(O)cc2)S1 [mirin]
- protection of RGC from death (RGC [1]): > 98%
- protection of RGC from death (RGC [2]): > 96%
